{"source": "patent US6489440B1", "about": "(Basilea Pharmaceutica AG, priority 1998, dated 2002)", "note": "Strings that start with PEPTIDE1 are HELM notation: dots part the residues, brackets hold end groups and non-standard residues.", "data": [{"experiment": "general procedure: peptide synthesis; BOP reagent, HOBT hydrate, N,N-diisopropylethylamine", "settings": "late stage modification step", "units": {"step yield": "%"}, "values": [{"substance": "N-Boc derivative (N(va1)-Boc-IX) of the valine residue of the compound (IX)", "step yield": 6}, {"substance": "N-Boc derivative (N(orn)-Boc-IX) of the ornitine residue of the compound (IX)", "step yield": 45}, {"substance": "PEPTIDE1{[HA16].[xThr].[xAla].[xTyr].[xVal].[x4Hyp].[xThr].[xThr].[x3Hyp].[x3OHGln].G.[xThr].[xOrnSar]}$PEPTIDE1,PEPTIDE1,1:R1-13:R2$$$V2.0", "step yield": 39}]}]}
